Results are given in words; binding and its absence hold for the method and conditions named. Some binding calls cover weakened binding; strength is not graded here.
T1: endogenous B7H3 on cancer cell lines (UniProt Q5ZPR3)
T1 sequence (looked up): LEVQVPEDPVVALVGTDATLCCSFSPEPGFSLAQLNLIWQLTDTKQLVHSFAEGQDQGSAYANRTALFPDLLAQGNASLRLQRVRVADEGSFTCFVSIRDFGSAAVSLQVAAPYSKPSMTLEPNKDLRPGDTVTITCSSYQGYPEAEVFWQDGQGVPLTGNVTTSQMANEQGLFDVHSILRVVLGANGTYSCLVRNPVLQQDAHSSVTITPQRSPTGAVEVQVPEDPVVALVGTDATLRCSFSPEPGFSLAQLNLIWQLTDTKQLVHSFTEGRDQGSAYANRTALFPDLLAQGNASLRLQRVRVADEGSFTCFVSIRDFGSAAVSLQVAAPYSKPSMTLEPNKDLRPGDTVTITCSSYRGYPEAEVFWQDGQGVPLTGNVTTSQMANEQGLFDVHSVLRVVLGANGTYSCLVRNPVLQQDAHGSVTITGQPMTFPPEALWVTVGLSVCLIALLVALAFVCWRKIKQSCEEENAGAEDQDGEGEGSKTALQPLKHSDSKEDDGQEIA

T2: full length human B7H3 expressed on CHOK1 cells (human) (UniProt Q5ZPR3)
T2 sequence (looked up): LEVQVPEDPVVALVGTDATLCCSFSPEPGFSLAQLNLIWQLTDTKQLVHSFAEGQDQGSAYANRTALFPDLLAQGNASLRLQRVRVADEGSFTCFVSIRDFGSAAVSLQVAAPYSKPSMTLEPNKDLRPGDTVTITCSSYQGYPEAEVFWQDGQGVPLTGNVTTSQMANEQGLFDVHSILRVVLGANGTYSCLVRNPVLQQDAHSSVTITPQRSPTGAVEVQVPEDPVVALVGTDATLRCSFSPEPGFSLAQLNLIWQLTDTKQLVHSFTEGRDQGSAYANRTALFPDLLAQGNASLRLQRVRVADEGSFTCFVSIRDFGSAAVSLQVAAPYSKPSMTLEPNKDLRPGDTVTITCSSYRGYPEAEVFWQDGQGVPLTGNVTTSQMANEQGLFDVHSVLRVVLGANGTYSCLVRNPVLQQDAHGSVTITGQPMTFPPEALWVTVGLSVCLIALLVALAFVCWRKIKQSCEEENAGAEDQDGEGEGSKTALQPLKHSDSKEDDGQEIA


What was measured:
[1] = molecular target: T1, endogenous B7H3 on cancer cell lines; test: FACS on cancer cell lines
[2] = molecular target: T2, full length human B7H3 expressed on CHOK1 cells (human); test: FACS, VH titrated with or without 20 nM Enoblituzumab as competitor

Row | binding [1] | binding [2] | Binder
1 | binds |  | BH-07 anti-B7H3 scFv (scFv, not shown: small tags and cut ends) scFv: EVQLVESGGGVVQPGRSLRLSCAASGFTFSRYAMHWVRQAPGKGLEWVAVISYDGNNKYYGDSVKGRFTISRDNSKNTLYLQMNSLRTEDTAVYYCARTERWLGGDFDYWGQGTLVTVSSGGGGSGGGGSGGGGSSSELTQPPSASGTPGQRVTISCSGSTSNVGRYSVSWYQQVPGTAPKLLIYRSDQRPSGVPDRFSGSKSGTSASLAISGLRSEDEADYYCAAWDDSLREVFGGGTKLTVL
2 |  | binds | BH-02 anti-B7H3 VH antibody (VHH, not shown: small tags and cut ends) VHH: EVQLVESGGGVVQPGRSLRLSCAASGFTFSSYAMHWVRQAPGKGLKWVAVISYDGSNKYYADSVKGRFTISRDNSKNTLYLQMNGLRAEDTAVYYCARDLAAMVTRDDYWGQGTLVTVSS
